Inconclusive results, whose numbers are uncertain, are shown with a selection of clear calls. For some of these results: A potency beside an inconclusive call is a rough fit, not a confirmed value. Calls of active or inactive are those of the source. Rule for the calls: active = hit-call score of the fitted dose curve at least 0.9, where 1 is the maximum; inconclusive = response in the unintended direction; inactive = score below 0.9.
How the values were obtained:
[1] = target: rat Histamine Receptor (H3), Hrh3 (gene 85268) (UniProt Q9QYN8); test: NVS_GPCR_rH3: NovaScreen (NVS) G Protein-Coupled Receptor Assay for rat Histamine Receptor (H3) (AID 2283303)
Method in brief: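 Rat forebrain membranes incubated 1 h with compound; radioligand displacement measured by filter-based scintillation counting. Single-concentration duplicates at 25 µM, then concentration-response up to 50 µM, relative to DMSO.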

Sequences of proteins named here, by UniProt entry; tags and fusion partners are left off. A change or cut given only in a name is not applied to a line headed by its entry.
UniProt Q9QYN8: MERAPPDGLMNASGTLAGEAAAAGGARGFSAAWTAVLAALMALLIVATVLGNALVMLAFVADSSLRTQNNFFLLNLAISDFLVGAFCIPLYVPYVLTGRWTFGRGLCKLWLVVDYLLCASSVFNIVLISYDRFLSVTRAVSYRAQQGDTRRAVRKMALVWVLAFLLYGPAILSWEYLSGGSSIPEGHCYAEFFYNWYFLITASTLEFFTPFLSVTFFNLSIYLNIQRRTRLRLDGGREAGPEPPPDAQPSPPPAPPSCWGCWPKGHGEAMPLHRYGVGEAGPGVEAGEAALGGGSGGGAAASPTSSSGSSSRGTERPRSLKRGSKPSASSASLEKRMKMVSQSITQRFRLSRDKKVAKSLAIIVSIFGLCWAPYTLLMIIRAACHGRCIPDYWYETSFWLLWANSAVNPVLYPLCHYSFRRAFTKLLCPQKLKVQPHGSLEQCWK
UniProt P33535, whole entry, looked up: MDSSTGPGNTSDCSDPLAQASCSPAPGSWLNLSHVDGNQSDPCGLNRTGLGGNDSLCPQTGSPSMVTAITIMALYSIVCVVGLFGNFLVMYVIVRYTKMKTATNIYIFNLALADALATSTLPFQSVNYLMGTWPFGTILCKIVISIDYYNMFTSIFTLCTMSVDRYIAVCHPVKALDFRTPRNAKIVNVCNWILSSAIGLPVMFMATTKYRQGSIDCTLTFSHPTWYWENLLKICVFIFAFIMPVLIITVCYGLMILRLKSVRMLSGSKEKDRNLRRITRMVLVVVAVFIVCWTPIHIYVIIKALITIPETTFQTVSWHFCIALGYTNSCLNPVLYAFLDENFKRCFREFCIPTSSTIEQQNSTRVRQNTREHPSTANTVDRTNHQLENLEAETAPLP
UniProt P08219: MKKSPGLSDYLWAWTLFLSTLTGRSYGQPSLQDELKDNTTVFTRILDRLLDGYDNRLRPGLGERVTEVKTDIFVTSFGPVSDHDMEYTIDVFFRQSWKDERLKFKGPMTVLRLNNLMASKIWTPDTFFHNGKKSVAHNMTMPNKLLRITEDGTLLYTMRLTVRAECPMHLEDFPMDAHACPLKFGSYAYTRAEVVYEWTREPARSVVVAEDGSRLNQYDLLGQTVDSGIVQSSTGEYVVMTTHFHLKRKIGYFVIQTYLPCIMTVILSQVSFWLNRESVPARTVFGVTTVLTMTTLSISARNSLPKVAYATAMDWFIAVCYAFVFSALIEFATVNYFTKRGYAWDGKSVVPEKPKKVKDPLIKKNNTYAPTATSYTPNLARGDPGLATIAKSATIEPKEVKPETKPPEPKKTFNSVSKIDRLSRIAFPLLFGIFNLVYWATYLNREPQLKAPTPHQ
UniProt Q99808: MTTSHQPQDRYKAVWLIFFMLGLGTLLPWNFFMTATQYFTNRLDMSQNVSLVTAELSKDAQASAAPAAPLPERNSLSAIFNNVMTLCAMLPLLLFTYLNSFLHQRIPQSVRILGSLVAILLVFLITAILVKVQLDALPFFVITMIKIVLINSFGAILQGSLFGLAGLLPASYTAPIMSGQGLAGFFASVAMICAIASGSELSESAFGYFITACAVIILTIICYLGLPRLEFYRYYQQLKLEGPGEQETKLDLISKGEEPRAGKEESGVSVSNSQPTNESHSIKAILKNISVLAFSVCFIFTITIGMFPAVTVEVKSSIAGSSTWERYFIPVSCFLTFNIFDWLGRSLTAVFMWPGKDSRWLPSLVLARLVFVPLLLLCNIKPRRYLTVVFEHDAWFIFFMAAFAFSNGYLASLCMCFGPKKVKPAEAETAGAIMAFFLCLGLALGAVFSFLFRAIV
UniProt P31652, whole entry, looked up: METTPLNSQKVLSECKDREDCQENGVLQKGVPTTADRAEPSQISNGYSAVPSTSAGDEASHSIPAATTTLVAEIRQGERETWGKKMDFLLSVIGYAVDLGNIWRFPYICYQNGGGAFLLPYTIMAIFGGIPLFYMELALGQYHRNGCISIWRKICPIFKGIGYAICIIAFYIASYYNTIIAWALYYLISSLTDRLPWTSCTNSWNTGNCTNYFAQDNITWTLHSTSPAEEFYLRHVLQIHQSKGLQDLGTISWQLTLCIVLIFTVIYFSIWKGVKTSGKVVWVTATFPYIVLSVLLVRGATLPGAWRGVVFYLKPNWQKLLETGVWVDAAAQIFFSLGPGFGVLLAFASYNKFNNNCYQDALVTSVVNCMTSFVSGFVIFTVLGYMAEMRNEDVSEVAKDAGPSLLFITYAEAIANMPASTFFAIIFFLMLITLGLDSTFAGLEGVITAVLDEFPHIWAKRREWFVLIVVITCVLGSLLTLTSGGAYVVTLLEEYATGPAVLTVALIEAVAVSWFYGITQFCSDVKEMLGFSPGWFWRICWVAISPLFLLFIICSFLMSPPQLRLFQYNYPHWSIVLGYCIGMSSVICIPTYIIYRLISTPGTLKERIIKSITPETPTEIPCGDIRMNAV

[2] = target: rat Opioid Receptor, Non-selective Sodium (Na+) Binding, Oprm1 (gene 25601) (UniProt P33535); test: NVS_GPCR_rOpiate_NonSelectiveNa: NovaScreen (NVS) G Protein-Coupled Receptor Assay for rat Opioid Receptor, Non-selective Sodium (Na+) Binding (AID 2283311)
Method in brief: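 Rat forebrain membranes, radioligand displacement with filter scintillation counting, 1.5 h incubation. Screened in duplicate at 25 µM; hits then run in concentration-response up to 50 µM; loss of binding fitted versus DMSO.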

[3] = NVS_IC_rCaDHPRCh_L: NovaScreen (NVS) Ion Channel Assay for rat Calcium Channel, Type L, Dihydropyridine Site (CaDHPRCh_L) (AID 2283320)
Method in brief: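 Radioligand binding to dihydropyridine site on rat cortical membranes, filter-based scintillation counting, 1 h after dosing. Screened in duplicate at 25 uM; actives rerun in concentration-response up to 50 uM. Loss of signal versus DMSO baseline.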

[4] = target: bovine Gamma-Aminobutyric Acid Type A Receptor Agonist (GABAR Agonist), GABRA1 (gene 780973) (UniProt P08219); test: NVS_LGIC_bGABAR_Agonist: NovaScreen (NVS) Ligand-Gated Ion Channel Assay for bovine Gamma-Aminobutyric Acid Type A Receptor Agonist (GABAR Agonist) (AID 2283338)
Method in brief: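 Radioligand binding to bovine cerebellar membranes in agonist format, read by filter-based scintillation counting after 1 h. Primary screen in duplicate at 25 uM, with actives followed in concentration series. Gain of signal versus DMSO.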

[5] = target: human Adenosine Transporter (Adot), SLC29A1 (gene 2030) (UniProt Q99808); test: NVS_TR_hAdoT: NovaScreen (NVS) Transporter Assay for human Adenosine Transporter (Adot) (AID 2283368)
Method in brief: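 U937-derived membranes, cell-free radioligand binding, filter scintillation 1 h after dosing. 25 uM duplicate screen; hits (e.g. 30% inhibition) run in concentration-response up to 50 uM; loss of signal versus DMSO.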

[6] = tested on: rat Norepinephrine Transporter (NET), gene 83511; test: NVS_TR_rNET: NovaScreen (NVS) Transporter Assay for rat Norepinephrine Transporter (NET) (AID 2283373)
Method in brief: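 Rat forebrain membranes; radioligand binding measured by filter-based scintillation counting 1 hour after dosing. Loss of specific binding versus DMSO baseline scored; primary screen in duplicate at 25 uM, actives followed up in concentration series.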

[7] = target: rat Serotonin Transporter (SERT), Slc6a4 (gene 25553) (UniProt P31652); test: NVS_TR_rSERT: NovaScreen (NVS) Transporter Assay for rat Serotonin Transporter (SERT) (AID 2283375)
Method in brief: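 Rat forebrain membranes were incubated with test chemical for 1 hour; radioligand binding to SERT was measured by filter-based scintillation counting. Primary screen ran in duplicate at 25 uM, with actives followed up in concentration series; DMSO served as negative control.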

[8] = ArunA_NOG_NeuritesPerNeuron: ArunA Biomedical's Neurite Outgrowth (NOG) Assay for Neurites Per Neuron (AID 2283758)
Method in brief: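 Differentiated human H9-derived neurons exposed to chemicals for 48 h from seeding, then stained with Hoechst and βIII-tubulin/DyLight 488. Automated imaging counted neurites (processes >10 um) per valid neuron; loss of signal versus DMSO scored.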

[9] = VALA_TUBHUV_Agonist_CellCount: Viability Assessment in the VALA Sciences human Umbilical Vein Endothelial Tubule Formation (TUBHUV) Agonism Assay (AID 2284309)
Method in brief: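 HUVEC co-cultured 1:3 with HDF for 3 days in 10 ng/ml VEGF, then compounds added in VEGF medium for a further 3 days (72 h). Nuclear-stain/CD31 imaging cell count. Positive-direction fit versus 0.1% DMSO vehicle.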

[10] = VALA_TUBHUV_Agonist_TubuleLength: VALA Sciences human Umbilical Vein Endothelial Tubule Formation (TUBHUV) Agonism Assay (AID 2284337)
Method in brief: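 HUVEC co-cultured with fibroblasts (1:3) 3 days in 10 ng/ml VEGF, then 3 days with compound plus VEGF; 0.1 % DMSO neutral control. Fixed, nuclear and CD31 stained; tubule length by fluorescence imaging.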

Measured: AC50

CCCCCCCCCC
inconclusive: [1] 25 µM | [2] 109 nM | [3] 25 µM | [4] 649 nM | [5] 941 nM | [6] 89.1 nM | [8] 705 nM | [9] 10 µM | [10] 10 µM
inactive: [7]
